Here are results for 1 molecule from patent publication CN114573694A.

The target of the assay is T1, IL13Rα2 antigen without His tag, expressed from pMAL (IL13Rα2-W/O-HIS) (human) (UniProt Q14627).
T1 sequence (looked up): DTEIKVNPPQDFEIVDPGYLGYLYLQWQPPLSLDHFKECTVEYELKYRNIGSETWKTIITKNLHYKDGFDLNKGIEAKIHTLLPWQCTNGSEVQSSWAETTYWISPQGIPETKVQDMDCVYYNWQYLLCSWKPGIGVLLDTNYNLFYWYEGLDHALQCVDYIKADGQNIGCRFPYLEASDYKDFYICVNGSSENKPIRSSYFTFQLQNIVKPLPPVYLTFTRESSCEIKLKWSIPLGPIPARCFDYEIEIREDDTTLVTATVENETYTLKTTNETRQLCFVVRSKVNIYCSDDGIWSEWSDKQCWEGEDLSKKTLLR
The experiment in a line: Western blot, mAb15D8 as first antibody.

These are yes or no findings as the source states them, for the method shown. Some binding calls cover weakened binding; strength is not graded here. Tags and fused reporters may be left off the sequences shown.

B1: anti-IL13Rα2 monoclonal antibody mAb15D8 (mouse, from hybridoma) (antibody, mouse IgG1, kappa, V domains shown)
VH: QVTLKESGPGILQPSQTLSLTCSFSGFSLSPSGMGVSWIRQPSGKGLEWLAHIYWDDDKLYNPSLKSRLTISKDTSSNQVFLKITSVDTADTATYYCARRGLRLRAMDYWGQGTSVTVSS
VL: DIVLTQSPASLAVSLGQRATISCRASESVDSYGNSFMHWYQQKPGQPPKLLIYRTSNLESGIPARFSGSGSRTDFTLTINPVEADDVATYYCQQSNEDPFTFGSGTKLEIKR
Turning to B1, the binding entry was “binds”.
